Publication doi:10.1101/047555
These are yes or no findings as the source states them, for the method shown. Binding can be weak; no strength is given.

Experiments:
[1] = molecular target: EP1, MamE PDZ1 domain as 6xHis-MBP fusion (Magnetospirillum magneticum AMB-1); assay: phage display selection + ELISA
[2] = molecular target: EP2, MamE PDZ2 domain as 6xHis-MBP fusion (Magnetospirillum magneticum AMB-1); assay: phage display selection + ELISA

Binder	binding [1]	binding [2]
WSQEMEDWFWQMPLSG [phage-displayed peptide that dominated the selection on MamE PDZ1]	binds	
MEDYGIFMTSPEGPWA [phage-displayed peptide that dominated the selection on MamE PDZ2]		binds
